Test results published in PMC11719397, “Monophthalates of betulinic acid and related pentacyclic triterpenes inhibit efficiently the SOS-mediated nucleotide exchange and impact PI3K/AKT signaling in oncogenic K-RAS4B proteins” (RSC Advances, 2025).
In brackets after ≈: the same amount, converted by molar mass.

Assay: physchem

solubility: 277 µM (≈ 128 µg/mL)
SMILES: COc1cc2nc(C)nc(N[C@H](C)c3cc(N)cc(C(F)(F)F)c3)c2cc1O[C@H]1CCOC1 [Compound 55, BI3406]
